Results are given in words; binding and its absence hold for the method and conditions named. In cells and extracts the contact can be indirect. Some entries that bind do so weakly or less than the wild type.
Molecular target: p53 (mouse (endogenous in C3H/10T1/2)) (UniProt P02340)
Assay: co-IP; 1x10^7 cells lysed in IP lysis buffer; p53-specific antibody overnight at 4 C; Protein A/G magnetic beads; HMGA1 detected by blot; triplicate experiments

B1: High mobility group A1 (HMGA1) (protein, UniProt P17095 1-107)
chain: MSESGSKSSQPLASKQEKDGTEKRGRGRPRKQPPVSPGTALVGSQKEPSEVPTPKRPRGRPKGSKNKGAAKTRKVTTAPGRKPRGRPKKLEKEEEEGISQESSEEEQ
Question: With B1 as the binder, how does the binding read?
Answer: The binding was “binds”.
